From patent publication US20130274233A1, “MODULATORS OF HEDGEHOG SIGNALING PATHWAY” (priority 2012, published 2013)
At least one structure is not confirmed: it was looked up by name or label, or the drawing left a doubt.

Sequences of proteins named here, by UniProt entry; tags and fusion partners are left off. Residues count along the entry.
UniProt Q99835, 28-787: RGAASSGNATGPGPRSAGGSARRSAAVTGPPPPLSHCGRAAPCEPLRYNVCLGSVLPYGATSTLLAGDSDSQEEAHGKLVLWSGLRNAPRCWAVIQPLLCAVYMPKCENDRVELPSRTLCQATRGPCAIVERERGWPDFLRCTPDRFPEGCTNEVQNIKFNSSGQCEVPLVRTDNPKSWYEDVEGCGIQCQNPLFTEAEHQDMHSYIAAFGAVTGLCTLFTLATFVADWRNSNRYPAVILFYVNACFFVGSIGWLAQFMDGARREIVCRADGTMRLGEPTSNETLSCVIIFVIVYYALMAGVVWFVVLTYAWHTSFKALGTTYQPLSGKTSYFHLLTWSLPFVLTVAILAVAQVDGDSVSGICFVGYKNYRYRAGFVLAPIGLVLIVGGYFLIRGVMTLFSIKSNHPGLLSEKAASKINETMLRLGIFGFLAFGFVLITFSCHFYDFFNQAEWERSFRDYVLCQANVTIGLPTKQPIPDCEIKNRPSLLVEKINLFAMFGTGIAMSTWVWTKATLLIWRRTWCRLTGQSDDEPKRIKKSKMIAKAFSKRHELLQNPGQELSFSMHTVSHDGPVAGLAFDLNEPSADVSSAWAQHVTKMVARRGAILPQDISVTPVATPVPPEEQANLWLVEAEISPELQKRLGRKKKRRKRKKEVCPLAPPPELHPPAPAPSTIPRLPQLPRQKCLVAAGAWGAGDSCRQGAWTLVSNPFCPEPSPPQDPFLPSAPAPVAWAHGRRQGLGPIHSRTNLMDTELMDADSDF
UniProt Q99835, 28-787 W535L: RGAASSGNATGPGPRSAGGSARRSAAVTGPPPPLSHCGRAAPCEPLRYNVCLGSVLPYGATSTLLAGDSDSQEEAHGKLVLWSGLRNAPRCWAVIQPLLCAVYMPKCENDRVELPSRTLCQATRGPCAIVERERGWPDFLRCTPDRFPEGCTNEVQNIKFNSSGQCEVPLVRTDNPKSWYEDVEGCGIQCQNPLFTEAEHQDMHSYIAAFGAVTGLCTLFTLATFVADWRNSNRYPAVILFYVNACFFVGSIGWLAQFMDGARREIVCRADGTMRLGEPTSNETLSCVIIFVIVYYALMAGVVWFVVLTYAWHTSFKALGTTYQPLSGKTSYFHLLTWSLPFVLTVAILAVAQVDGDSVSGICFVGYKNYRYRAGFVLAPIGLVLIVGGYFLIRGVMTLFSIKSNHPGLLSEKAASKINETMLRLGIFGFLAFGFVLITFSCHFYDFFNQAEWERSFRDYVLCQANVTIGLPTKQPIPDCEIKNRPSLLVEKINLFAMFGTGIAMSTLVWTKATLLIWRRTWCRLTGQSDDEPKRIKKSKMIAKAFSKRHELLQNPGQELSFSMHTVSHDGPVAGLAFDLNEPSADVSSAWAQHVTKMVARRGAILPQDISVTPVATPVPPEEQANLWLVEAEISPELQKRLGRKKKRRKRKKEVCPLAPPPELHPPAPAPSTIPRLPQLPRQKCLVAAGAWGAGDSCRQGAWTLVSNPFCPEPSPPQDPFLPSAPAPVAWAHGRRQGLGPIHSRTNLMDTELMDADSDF

How the values were obtained:
Smo::EGFP [1] = biological target: T1, Smo::EGFP (Homo sapiens, UniProt Q99835); assay: High content assay of Shh-induced Smo::EGFP accumulation in the primary cilium (Smo::EGFP/Ivs::tagRFPT NIH/3T3 cells); type: cell-based; conditions: for inhibition of Shh-induced Smo::EGFP accumulation in the PC: in the presence of Shh
T1 construct: expressed in transfected cells
Source text: (§1) NIH/3T3 cells were maintained in DMEM containing 10% (v/v) calf serum, penicillin, streptomycin, and L-glutamine. HEK293, L, cos 7, and suFU−/− mouse embryonic fibroblast cells were maintained in DMEM containing 10% (v/v) fetal bovine serum, penicillin, streptomycin, and L-glutamine. Smo::EGFP, SmoM2::GFP, and Ivs::tagRFPT were cloned into pBabe to generate retroviral particles for infection. Smo::EGFP/Ivs::tagRFPT and SmoM2::GFP/Ivs::tagRFPT stable cell lines were generated through viral infection of NIH/3T3^12. A ShhLightII Gli reporter cell line was obtained from the American Type Culture Collection (ATCC) and used in luciferase reporter assays to measure Hh pathway activity. The cell line contains a stably integrated Gli-responsive Firefly luciferase reporter and a constitutive Renilla luciferase expression construct^33. Subclones expressing Smo or SmoM2 in ShhLightII cells were used for chemical epistasis analyses.
(§2) Cells were cultured and treated in 384-well imaging plate precoated with poly-D-Lysine (Greiner Bio-one), fixed with 4% paraformaldehyde (Electron Microscopy Sciences), and stained with Hoechst (Invitrogen). Images were collected using Opera High Content Screening System (Perkin Elmer). Activityl)ase (IDBS Inc, Emeryvill, Calif.) and Pipeline Pilot (Accelrys, Inc. San Diego, Calif.) were used for high content screening data management and analysis. Acapella 2.0 software (Evotec Technologies/PerkinElmer) was used to perform multi-parametrical high content image quantification. All the images for comparison were scanned with identical microscopic settings and analyzed with the same input parameters.
(§3) Acapella 2.0 software (Evotec Technologies/PerkinElmer) was used to perform multi-parametric high content image quantification. Our image analysis script used Ivs::tagREPT to first determine the location of the PC and then Smo::EGFP to quantify the level of Smo present in the cilium.
The inventors used the spot-finding algorithm in the RFP channel to find Ivs-rich spots. […] The average, maximum and total RFP intensity of each spot were measured. […]

Hh pathway activity [2] = assay: Gli-luciferase reporter assay, Shh-induced Hh pathway activity (ShhLightII cells); type: cell-based; conditions: Shh stimulation
Source text: as §1
(§4) Hh activity assays were performed using ShhLightll cells, Smo/Lightll cells, SmoM2/Lightll cells, and suFU−/− mouse embryonic fibroblasts. In the suFU−/− cells, Hh activity was measured after co-transfection with Gli driven firefly luciferase and TK-renilla luciferase reporters^41. Wnt activity was measured in 293 cells co-transfected with Top-flash and TK-renilla luciferase reporters^42. Cells were cultured and treated in 96 well assay plates (Corning) and incubated with Duo-Glo luciferase substrates (Promega) to measure firefly and renilla luciferase activity sequentially using a Top Count NX Microplate Scintillation and Luminescence Counter (Perkin Elmer). […]
(§5) ShhLightII cells and SmoM2/LightII cells were cultured and treated in 96 well assay plates (Corning) and incubated with Duo-Glo luciferase substrates (Promega) to sequentially measure firefly and renilla luciferase activity. […] Wnt activity was measured following co-transfection of a Top-flash and renilla luciferase reporter. […] Luciferase signal was read by TopCount NX Microplate Scintillation and Luminescence Counter (Perkin Elmer). […]

Smo::EGFP [3] = biological target: T1, Smo::EGFP; assay: SAG-induced Smo::GFP ciliary accumulation (3T3/Smo::GFP/Ivs::tagRFPT); type: cell-based; conditions: SAG stimulation
Description: as §2, §3
The inventors used the spot-finding algorithm in the RFP channel to find Ivs-rich spots. Each non-overlapping spot was based on a maximum 8 pixel-radius (when using a 40× objective) around a central intensity peak of 5 pixels. A distance of at least 10 pixels was required between adjacent spot centers. […] The average, maximum and total RFP intensity of each spot were measured. […]

Hh pathway activity [4] = assay: SAG-induced Gli-luciferase reporter expression (3T3/Shh-LightII); type: cell-based; conditions: SAG stimulation
Description: (§6) Hh activity assays were performed using ShhLightll cells, Smo/Lightll cells, SmoM2/Lightll cells, and suFU−/− mouse embryonic fibroblasts. In the suFU−/− cells, Hh activity was measured after co-transfection with Gli driven firefly luciferase and TK-renilla luciferase reporters^41. Wnt activity was measured in 293 cells co-transfected with Top-flash and TK-renilla luciferase reporters^42. Cells were cultured and treated in 96 well assay plates (Corning) and incubated with Duo-Glo luciferase substrates (Promega) to measure firefly and renilla luciferase activity sequentially using a Top Count NX Microplate Scintillation and Luminescence Counter (Perkin Elmer). The renilla luciferase signal was used to normalize the firefly reporter activity.
as §5, with “Elmer). Quantitative PCR probes for Ptch1, Gli1, and β-actin were purchased from Applied Biosystems.” for “Elmer).”

SmoM2::GFP = biological target: T2, SmoM2::GFP (Homo sapiens, UniProt Q99835, W535L); assay: Ciliary localization of SmoM2::GFP (3T3/SmoM2::GFP Overexpression/Ivs::tagRFPT); type: cell-based; conditions: SmoM2::EGFP overexpressing cells
T2 construct: expressed in transfected cells
Source text: as §1, with “The cell line contains a stably integrated Gli-responsive Firefly luciferase reporter and a constitutive Renilla luciferase expression construct^33. Subclones expressing Smo or SmoM2 in ShhLightII cells were used for chemical epistasis analyses.” left out
as §2, with “Images were collected using Opera High Content Screening System (Perkin Elmer). Activityl)ase (IDBS Inc, Emeryvill, Calif.) and Pipeline Pilot (Accelrys, Inc. San Diego, Calif.) were used for high content screening data management and analysis.” left out
Acapella 2.0 software (Evotec Technologies/PerkinElmer) was used to perform multi-parametric high content image quantification. […]

SmoM2 = assay: Gli-luciferase reporter induced by SmoM2::GFP overexpression (SmoM2/LightII cells); type: cell-based
Source text: as §1, with “The cell line contains a stably integrated Gli-responsive Firefly luciferase reporter and a constitutive Renilla luciferase expression construct^33. Subclones expressing Smo or SmoM2 in ShhLightII cells were used for chemical epistasis analyses.” left out
as §4

Smo = assay: Bodipy-cyclopamine competition assay in Cos 7 cells expressing Smo; type: binding; conditions: cells over-expressing Smo, 5 nM Bodipy-cyclopamine
Description: Cos 7 cells were transfected with a plasmid co-expressing Smo and a nuclear localized form of tagRFPT (pCIT-Smo). An empty parental construct (pCIT), and a construct that co-expresses SmoM2, were used as controls to assess specificity and background noise. Three days after transfection, cells were incubated with 5 nM Bodipy-cyclopamine, with or without other compounds for 1 hour at 37 °C. Cells were washed, fixed and stained with Hoechst. Images were collected by an Opera High Content Screen System. Bodipy fluorescence was quantified specifically for transfected cells (determined by red tagRFPT+ nucleus) using a program developed by the authors with Acapella 2.0 software. All of the images were scanned with identical microscopic settings and analyzed with the same input parameters.
Cos 7 cells were transfected with a plasmid that co-expresses Smo and a nuclear localized tagRFPT marker (pCIT-Smo). The empty parental construct (pCIT) and a construct that co-express SmoM2 were used as controls to assess specificity and background signal. […] Fluorescence values were assessed in transfected cells (red nuclei) with a program developed by the authors using Acapella 2.0 software. All of images were scanned with identical microscopic setting and analyzed with the same input parameters.

[5] = system: Hh pathway activation induced by loss of suFU; assay: Gli-luciferase assay in suFU−/− mouse embryonic fibroblasts; type: cell-based; conditions: suFU−/− cells
Description: as §6
as §5, with “Elmer). Quantitative PCR probes for Ptch1, Gli1, and β-actin were purchased from Applied Biosystems.” for “Elmer).”

Smo::EGFP [6] = biological target: T1, Smo::EGFP; assay: Cyc-induced Smo ciliary accumulation (Smo::EGFP/Ivs::tagRFPT cells); type: cell-based; conditions: 5 μM Cyc
Description: as §2, §3

Hh pathway activity [7] = assay: Priming and withdrawal of compound followed by Shh stimulation, Gli-luciferase reporter (hypersensitivity); type: cell-based; conditions: priming 24 hours, washout, then Shh (or SAG) stimulation
Description: as §6, with “activity. […]” for “activity.”
as §5, with “Elmer). Quantitative PCR probes for Ptch1, Gli1, and β-actin were purchased from Applied Biosystems.” for “Elmer).”

Hh pathway activity [8] = assay: Gli-luciferase reporter assay, Hh pathway activation by compound alone (NIH/3T3 cells); type: cell-based; conditions: Bud only
Description: ShhLightII cells and SmoM2/LightII cells were cultured and treated in 96 well assay plates (Corning) and incubated with Duo-Glo luciferase substrates (Promega) to sequentially measure firefly and renilla luciferase activity. Smo, or GFP, expression plasmids were co-transfected into 3T3 cells together with a Gli-responsive firefly reporter and a TK-renilla luciferase reporter contruct to monitor effects of Smo overexpression. Co-transfection of the two reporter constructs was conducted in assays measuring Hh pathway activity in suFU−/− cells. Wnt activity was measured following co-transfection of a Top-flash and renilla luciferase reporter. In both Hh and Wnt activity assays, renilla luciferase reporter activity, or mass of protein, was used to normalize expression values. Luciferase signal was read by TopCount NX Microplate Scintillation and Luminescence Counter (Perkin Elmer). Quantitative PCR probes for Ptch1, Gli1, and β-actin were purchased from Applied Biosystems. Reactions and measurements were performed using on an Applied Biosystems 7900HT at Harvard FAS Center of System Biology. β-actin was used to normalize Ptch1 and Gil1 values.

primary cilium (PC) = assay: Primary cilium markers in the high content assay (Ivs::tagRFPT, Arl13b, acetylated tubulin); type: cell-based; conditions: Ivs::tagRFPT and other PC markers
Source text: as §3
The inventors used the spot-finding algorithm in the RFP channel to find Ivs-rich spots. Each non-overlapping spot was based on a maximum 8 pixel-radius (when using a 40× objective) around a central intensity peak of 5 pixels. A distance of at least 10 pixels was required between adjacent spot centers. Spot peaks had to exceed thresholds of relative intensity compared to the remaining body of the spot as well as to the entire image. The average, maximum and total RFP intensity of each spot were measured. The spots with sufficiently high absolute maxima to pass the selected threshold were classified as positive spots. […]
Cells were cultured and treated in 384-well imaging plate precoated with poly-D-Lysine (Greiner Bio-one), fixed with 4% paraformaldehyde (Electron Microscopy Sciences), and stained with Hoechst (Invitrogen). […] Acapella 2.0 software (Evotec Technologies/PerkinElmer) was used to perform multi-parametric image quantification. All the comparative images were scanned with identical microscopic setting and analyzed with the same input parameters.

Smo::EGFP [9] = biological target: T1, Smo::EGFP; assay: High content screen for compound-induced Smo accumulation at the primary cilium (no Hh ligand); type: cell-based
Description: Cells were cultured and treated in 384-well imaging plate precoated with poly-D-Lysine (Greiner Bio-one), fixed with 4% paraformaldehyde (Electron Microscopy Sciences), and stained with Hoechst (Invitrogen). Images were collected using Opera High Content Screening System (Perkin Elmer).

In the case of `CCCC1O[C@@H]2C[C@H]3[C@@H]4CCC5=CC(=O)C=C[C@]5(C)[C@H]4[C@@H](O)C[C@]3(C)[C@]2(C(=O)CO)O1` (some centres unmarked) [Bud, Budesonide], the “effect on GDC0449's activity to block Smo accumulation at the PC and Hh pathway inhibition” value (Smo::EGFP [1]; 10 μM Bud with GDC0449 and Shh) is reported as “enhanced”, the “inhibition of Shh-induced Smo::EGFP accumulation in the PC” value (Smo::EGFP [1]) is reported as “inhibition of Smo accumulation in the PC” and the “inhibition of Shh-induced Hh pathway activity, Gli-luciferase reporter” value (“inhibition … Gli-luciferase reporter” for short) (Hh pathway activity [2]) is reported as “inhibited”. For the same molecule, the “effect on SAG-induced Smo ciliary localization” value (Smo::EGFP [3]) was “attenuated”, the “effect on SAG-induced pathway activation, Gli-luciferase” value (Hh pathway activity [4]) was “attenuated” and the “effect on SmoM2 ciliary localization” value (SmoM2::GFP) was “attenuated”. For the same molecule, the “effect on SmoM2 driven Hh pathway activity, transcriptional reporter” value (SmoM2) was “attenuated”, the “competition of Bodipy-Cyc binding to Smo” value (Smo) was “failed to compete” and the “effect on Hh pathway activation induced by loss of suFU” value [5] was “failed to suppress”. The “effect on Cyc induced Smo cilial accumulation” value (Smo::EGFP [6]) was “suppressed”, the “hypersensitivity to Hh pathway stimulation after priming with and removal of compound, Gli-luciferase” value (Hh pathway activity [7]) was “nor did Bud induce a hypersensitive response” and the “Hh pathway inducing activity of compound alone” value (Hh pathway activity [8]) was “no pathway inducing activity”. For the same molecule, the “effect on primary cilium markers / ciliary structure” value (primary cilium (PC)) was “did not disrupt”.
In the case of `C=C[C@@]1(C)CC(=O)[C@]2(O)[C@@]3(C)[C@@H](O)CCC(C)(C)[C@@H]3[C@H](O)[C@H](OC(C)=O)[C@@]2(C)O1` [FKL, forskolin], the “competition of Bodipy-Cyc binding to Smo” value (Smo) is reported as “does not compete”, the “hypersensitivity to Hh pathway stimulation after priming with and removal of compound, Gli-luciferase” value (Hh pathway activity [7]) is reported as “elevated signaling response” and the “induction of Smo accumulation in the PC by compound alone” value (Smo::EGFP [9]) is reported as “induces Smo accumulation in the PC”.
`CCC(C)n1ncn(-c2ccc(N3CCN(c4ccc(OCC5COC(Cn6cncn6)(c6ccc(Cl)cc6Cl)O5)cc4)CC3)cc2)c1=O` (centres unmarked) [ICZ, Itraconazole] was tested, and the “inhibition of Shh-induced Smo::EGFP accumulation in the PC” value (Smo::EGFP [1]) was “inhibited” and the “inhibition … Gli-luciferase reporter” value (Hh pathway activity [2]) was “inhibited”.
For `O=c1cc(N2CCOCC2)oc2c(-c3ccccc3)cccc12` [LY 294002], the “inhibition … Gli-luciferase reporter” value (Hh pathway activity [2]) was “inhibits Hh signaling” and the “induction of Smo accumulation in the PC by compound alone” value (Smo::EGFP [9]) was “induces Smo ciliary accumulation”.
